# Test results reported in PubChem BioAssay AID330 (DTP/NCI, 2004).
# The list is a part of this screen's results and no random one: it is rich in T/C values a quarter to a half above the control, in often repeated tests (any T/C) and in doses without a T/C. Other doses and runs of a compound stand elsewhere. T/C is the treated group as % of the vehicle group. Some doses have a count of surviving animals in place of a T/C: the source holds a T/C of zero for them, seemingly a mark for toxic or unscored doses. Some doses without a T/C left all or most animals alive at the check, yet need not have been tolerated: the source hardly ever lists a survival T/C far under the control, and the zero likely stands for such cases as well. Survivors were counted at the toxicity check, usually on the fifth day, unless a day is given; later deaths do not show. Schedules are NCI's codes, taken here to give the interval after Q, in days (D) or hours (H), and the number of doses after X. Some doses were run more than once; the results are listed from low to high. Where survival is the endpoint, the PubChem record calls one and a half times the control and up active, and a quarter to a half above the control has no call in these data; cut-offs in other NCI protocols can differ. Some T/C values are followed by the survivors on the day toxicity was checked, most often the fifth; where none is given, no animal had died by that day.
# Test system: P388 leukemia ip, CD2F1 mice, survival T/C
# Test: NCI In Vivo Anticancer Drug Screen. Data for tumor model P388 Leukemia (intraperitoneal) in CD2F1 (CDF1) mice
# Conditions: T/C endpoint: median survival time, higher T/C = longer survival
# [1] = dose: 100.0 mg/kg/injection, schedule: Q01DX009 (ip), vehicle: saline
# [2] = dose: 200.0 mg/kg/injection, schedule: Q01DX009 (ip), vehicle: saline
# [3] = dose: 400.0 mg/kg/injection, schedule: Q01DX009 (ip), vehicle: saline
# [4] = dose: 600.0 mg/kg/injection, schedule: Q01DX009 (ip), vehicle: saline
# [5] = dose: 12.5 mg/kg/injection, schedule: Q01DX009 (ip), vehicle: saline
# [6] = dose: 25.0 mg/kg/injection, schedule: Q01DX009 (ip), vehicle: saline
# [7] = dose: 120.0 mg/kg/injection, schedule: Q01DX005 (ip), vehicle: saline with Tween-80
# [8] = dose: 25.0 mg/kg/injection, schedule: Q01DX005 (ip), vehicle: saline with Tween-80
# [9] = dose: 50.0 mg/kg/injection, schedule: Q01DX005 (ip), vehicle: saline with Tween-80
# [10] = dose: 100.0 mg/kg/injection, schedule: Q01DX005 (ip), vehicle: saline with Tween-80
# [11] = dose: 200.0 mg/kg/injection, schedule: Q01DX005 (ip), vehicle: saline with Tween-80
# [12] = dose: 60.0 mg/kg/injection, schedule: Q01DX005 (ip), vehicle: saline with Tween-80
# [13] = dose: 6.25 mg/kg/injection, schedule: Q01DX005 (ip), vehicle: saline with Tween-80
# [14] = dose: 50.0 mg/kg/injection, schedule: Q01DX009 (ip), vehicle: saline with Tween-80
# [15] = dose: 100.0 mg/kg/injection, schedule: Q01DX009 (ip), vehicle: saline with Tween-80
# [16] = dose: 200.0 mg/kg/injection, schedule: Q01DX009 (ip), vehicle: saline with Tween-80
# [17] = dose: 200.0 mg/kg/injection, schedule: Q01DX005 (ip), vehicle: Klucel (hydroxypropylcellulose) (HPC)
smiles,measurement,setting,value
NCCc1ccccc1,survivor count,[1],5 of 6
same,survivor count,[2],0 of 6
same,survivor count,[3],0 of 6
same,survivor count,[4],0 of 6
Cc1cc(N)cc(N)c1O,survivor count,[5],0 of 6
same,survivor count,[6],0 of 6
same,survivor count,"dose: 50.0 mg/kg/injection, schedule: Q01DX009 (ip), vehicle: saline",0 of 6
same,survivor count,[1],0 of 6
same,survivor count,[2],0 of 6
same,survivor count,[3],0 of 6
same,survivor count,[4],0 of 6
N#Cc1ccc(NC(=O)Nc2cccc(C#N)c2)cc1,survivor count,[7],6 of 6
C/C(=N\NC(=S)N1CCSCC1)c1ccccn1,survivor count,[8],5 of 6
same,survivor count,[9],4 of 6
same,survivor count,[10],2 of 6
same,survivor count,[11],0 of 6
CCOC(=O)NC(=Nc1cccc(C(=O)c2ccc3nc(NC(=O)OCC)[nH]c3c2)c1)NC(=O)OCC,survivor count,[12],6 of 6
same,survivor count,[7],6 of 6
same,survivor count,"dose: 240.0 mg/kg/injection, schedule: Q01DX005 (ip), vehicle: saline with Tween-80",6 of 6
CNC(=O)OCc1c(COC(=O)NC)c(-c2ccc(S(=O)(=O)c3ccccc3)cc2)n(C)c1C,T/C,"dose: 5.0 mg/kg/injection, schedule: Q01DX009 (ip), vehicle: distilled water + Tween-80",137 % of control
same,T/C,"dose: 6.25 mg/kg/injection, schedule: Q01DX009 (ip), vehicle: distilled water + Tween-80",139 % of control
same,T/C,"dose: 10.0 mg/kg/injection, schedule: Q01DX009 (ip), vehicle: distilled water + Tween-80",136 % of control
same,T/C,"dose: 20.0 mg/kg/injection, schedule: Q01DX009 (ip), vehicle: distilled water + Tween-80",146 % of control
same,T/C,"dose: 25.0 mg/kg/injection, schedule: Q01DX009 (ip), vehicle: distilled water + Tween-80",148 % of control
same,survivor count,"dose: 100.0 mg/kg/injection, schedule: Q01DX009 (ip), vehicle: distilled water + Tween-80",6 of 6
CNC(=O)C1OC(n2cnc3c(N)ncnc32)C(O)C1O (stereo not given),T/C,"dose: 3.13 mg/kg/injection, schedule: Q01DX005 (ip), vehicle: saline with Tween-80",126 and 128 % of control
same,T/C,[13],125 [5 of 6 alive] and 129 % of control [5 of 6 alive]
same,survivor count,[13],0 of 6
same,survivor count,"dose: 12.5 mg/kg/injection, schedule: Q01DX005 (ip), vehicle: saline with Tween-80",0 of 6
same,survivor count,[8],0 of 6
same,survivor count,[9],0 of 6
same,survivor count,[10],0 of 6
same,survivor count,[11],0 of 6
Nc1ccc2nc3ccc(N)cc3[n+](-c3ccccc3)c2c1,T/C,"dose: 6.0 mg/kg/injection, schedule: Q01DX009 (ip), vehicle: saline with Tween-80",136 % of control
same,T/C,"dose: 12.5 mg/kg/injection, schedule: Q04DX003 (ip), vehicle: saline with Tween-80",136 % of control
same,survivor count,"dose: 25.0 mg/kg/injection, schedule: Q04DX003 (ip), vehicle: saline with Tween-80",5 of 6
same,survivor count,"dose: 27.0 mg/kg/injection, schedule: Q01DX009 (ip), vehicle: saline with Tween-80",0 of 6
same,survivor count,"dose: 40.0 mg/kg/injection, schedule: Q01DX009 (ip), vehicle: saline with Tween-80",2 of 6
same,survivor count,"dose: 50.0 mg/kg/injection, schedule: Q04DX003 (ip), vehicle: saline with Tween-80",0 of 6
same,survivor count,"dose: 75.0 mg/kg/injection, schedule: Q04DX003 (ip), vehicle: saline with Tween-80",0 of 6
same,survivor count,"dose: 100.0 mg/kg/injection, schedule: Q04DX003 (ip), vehicle: saline with Tween-80",0 of 6
Nc1nc(N)c(N)c(N)n1,survivor count,[14],6 of 6
same,survivor count,[15],0 of 6
same,survivor count,[16],0 of 6
COC1/C=C/OC2(C)Oc3c(C)c(O)c4c(O)c(c(/C=N/N5CC(C)N(Cc6ccccc6)C(C)C5)c(O)c4c3C2=O)NC(=O)C(C)=C/C=C/C(C)C(O)C(C)C(O)C(C)C(OC(C)=O)C1C (stereo not given),survivor count,[16],3 of 6
Nc1nc([Se]c2nc(N)nc3c2ncn3C2OC(CO)C(O)C2O)c2ncn(C3OC(CO)C(O)C3O)c2n1 (stereo not given),T/C,"dose: 12.5 mg/kg/injection, schedule: Q01DX005 (ip), vehicle: distilled water + Tween-80",132 % of control
same,T/C,"dose: 25.0 mg/kg/injection, schedule: Q01DX005 (ip), vehicle: distilled water + Tween-80",138 % of control [5 of 6 alive]
same,T/C,"dose: 50.0 mg/kg/injection, schedule: Q01DX005 (ip), vehicle: distilled water + Tween-80",141 % of control
same,T/C,"dose: 100.0 mg/kg/injection, schedule: Q01DX005 (ip), vehicle: distilled water + Tween-80",135 % of control
same,survivor count,"dose: 400.0 mg/kg/injection, schedule: Q01DX005 (ip), vehicle: distilled water + Tween-80",0 of 6
C/C=C/c1cc(OC)c2c(c1)[C@H](C)C(c1ccc(O)c(OC)c1)O2 (stereo not given in full),survivor count,"dose: 300.0 mg/kg/injection, schedule: Q01DX005 (ip), vehicle: Klucel (hydroxypropylcellulose) (HPC)",5 of 6
CC1(C)CC(=O)C2OC21 (stereo not given),survivor count,"dose: 200.0 mg/kg/injection, schedule: Q04DX002 (ip), vehicle: saline",6 of 6
CCN(CC)CCNc1ccc(COC(N)=O)c2sc3ccccc3c(=O)c12,T/C,"dose: 400.0 mg/kg/injection, schedule: Q04DX003 (ip), vehicle: saline",142 % of control
O=C(O)CCC(CCC(=O)O)(C(=O)O)C(=O)O,survivor count,"dose: 240.0 mg/kg/injection, schedule: Q01DX005 (ip), vehicle: saline",6 of 6
O=NN(CCCl)C(=O)Nc1ccc(Br)cc1,T/C,[5],134 % of control
same,T/C,[6],134 % of control
same,survivor count,"dose: 100.0 mg/kg/injection, schedule: Q01DX009 (ip), vehicle: suspension in saline",6 of 6
Cc1ccc(C2=NN(c3ccccc3)C(c3ccccc3)C2NC2CCCCC2)cc1 (stereo not given),survivor count,[17],6 of 6
CSc1ccc(NC(=O)ON2C(=O)c3ccccc3C2=O)cc1,survivor count,[14],6 of 6
same,survivor count,[15],6 of 6
same,survivor count,[16],4 of 6
CCOC(=O)c1ccc(N2N=C3C(=CC(=O)c4ccccc43)SCC2=O)cc1,survivor count,[9],5 of 5
same,survivor count,[10],0 of 6
same,survivor count,[11],0 of 6
CSc1nc2c(nc(N)n2C2OC(COC(C)=O)C(OC(C)=O)C(OC(C)=O)C2OC(C)=O)c(=O)n1C (stereo not given),survivor count,[12],4 of 6
CCOC(=O)C(Cc1ccc(N(CCCl)CCCl)cc1)NC(=O)C(N)CCC(=O)O (stereo not given),T/C,"dose: 5.0 mg/kg/injection, schedule: Q04DX003 (ip), vehicle: water",125 % of control
same,T/C,"dose: 25.0 mg/kg/injection, schedule: Q01DX009 (ip), vehicle: Klucel (hydroxypropylcellulose) (HPC)",128 % of control
same,survivor count,"dose: 50.0 mg/kg/injection, schedule: Q01DX009 (ip), vehicle: Klucel (hydroxypropylcellulose) (HPC)",5 of 6
same,survivor count,"dose: 80.0 mg/kg/injection, schedule: Q04DX003 (ip), vehicle: water",2 of 6
same,survivor count,"dose: 100.0 mg/kg/injection, schedule: Q01DX009 (ip), vehicle: Klucel (hydroxypropylcellulose) (HPC)",3 of 6
same,survivor count,"dose: 160.0 mg/kg/injection, schedule: Q04DX003 (ip), vehicle: water",0 of 6
same,survivor count,"dose: 200.0 mg/kg/injection, schedule: Q01DX009 (ip), vehicle: Klucel (hydroxypropylcellulose) (HPC)",0 of 6
O=C1NC(c2ccccc2)C(c2ccccc2)(c2ccccc2)O1 (stereo not given),survivor count,[16],0 of 6
CCOc1cc2c(cc1C(CC)c1ccc(OCc3ccccc3)cc1)OCO2 (stereo not given),survivor count,[17],6 of 6
O=C(CNNC(=O)c1ccncc1)Nc1ccc(S(=O)(=O)c2ccc(NC(=O)CNNC(=O)c3ccncc3)cc2)cc1,survivor count,"dose: 100.0 mg/kg/injection, schedule: Q01DX005 (ip), vehicle: Klucel (hydroxypropylcellulose) (HPC)",5 of 5 and 6 of 6
